Assay results from article PMC7618248, “VEL-dependent polymerization maintains the chromatin association of Polycomb proteins for the switch to epigenetic silencing” (Molecular cell, 2025).
No constants are given. Whether binding was seen depends on the method and setting. Binding seen in cells or lysates may run through a third protein.

Amino acid sequences for entries named in this document (tags omitted). A change or cut given only in a name is not applied to a line headed by its entry.
UniProt Q9FIE3: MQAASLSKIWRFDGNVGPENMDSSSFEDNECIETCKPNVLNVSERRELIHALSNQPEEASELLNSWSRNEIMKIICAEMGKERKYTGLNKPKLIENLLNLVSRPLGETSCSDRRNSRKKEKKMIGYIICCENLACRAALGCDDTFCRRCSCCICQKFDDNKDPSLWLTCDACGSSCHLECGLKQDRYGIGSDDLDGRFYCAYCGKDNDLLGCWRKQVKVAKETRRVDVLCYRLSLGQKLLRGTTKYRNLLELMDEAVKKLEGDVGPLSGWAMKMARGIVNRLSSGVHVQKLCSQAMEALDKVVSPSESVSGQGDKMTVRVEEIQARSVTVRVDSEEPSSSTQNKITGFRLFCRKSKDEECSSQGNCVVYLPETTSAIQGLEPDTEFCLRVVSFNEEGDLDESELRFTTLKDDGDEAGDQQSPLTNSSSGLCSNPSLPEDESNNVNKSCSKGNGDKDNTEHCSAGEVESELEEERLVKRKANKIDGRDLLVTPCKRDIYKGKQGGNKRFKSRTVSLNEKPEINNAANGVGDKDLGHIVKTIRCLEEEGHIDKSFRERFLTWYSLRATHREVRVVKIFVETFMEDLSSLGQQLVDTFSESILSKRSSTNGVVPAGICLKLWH

Target: VIN3-GFP ΔVEL (Arabidopsis thaliana) (UniProt Q9FIE3)
Assay: co-IP; GFP-Trap immunoprecipitates from extracts of vernalized plants with VIN3-GFP transgenes, immunoblot probed with anti-FIE; IP buffer 50 mM Tris-HCl pH 7.5, 150 mM NaCl, 0.5% NP-40, 1% Triton-X; non-transgenic Col-FRI as negative control

B1: FIE (protein, UniProt Q9LT47 1-369)
chain: MSKITLGNESIVGSLTPSNKKSYKVTNRIQEGKKPLYAVVFNFLDARFFDVFVTAGGNRITLYNCLGDGAISALQSYADEDKEESFYTVSWACGVNGNPYVAAGGVKGIIRVIDVNSETIHKSLVGHGDSVNEIRTQPLKPQLVITASKDESVRLWNVETGICILIFAGAGGHRYEVLSVDFHPSDIYRFASCGMDTTIKIWSMKEFWTYVEKSFTWTDDPSKFPTKFVQFPVFTASIHTNYVDCNRWFGDFILSKSVDNEILLWEPQLKENSPGEGASDVLLRYPVPMCDIWFIKFSCDLHLSSVAIGNQEGKVYVWDLKSCPPVLITKLSHNQSKSVIRQTAMSVDGSTILACCEDGTIWRWDVITK
Q: Which binding does the source give for B1 here?
A: no binding
